Consider one molecule from PMC10584915.

The target of this test is SMN (human (endogenous in HeLa)), Q16637. Put plainly: co-IP; SMN complex precipitated from cell lysate (1xPBS, 0.01% NP-40, 2.5 mM MgCl2) with anti-SMN antibody 7B10 covalently coupled to ProteinG-Sepharose, 3 h at 4 °C; beads analysed by SDS-PAGE with Coomassie staining or western blotting; cells mock treated or treated with dTAG13 (0.5 uM, 72 h) to degrade Gemin3. To be noted: remark: other sources report otherwise.

These are yes or no findings as the source states them, for the method shown. Binding seen in cells or lysates may run through a third protein. Some results given as binding are weak or reduced against the parent protein; the word gives no strength.

B1: Gemin4, P57678 1-1058 (protein)
chain: MDLGPLNICEEMTILHGGFLLAEQLFHPKALAELTKSDWERVGRPIVEALREISSAAAHSQPFAWKKKALIIIWAKVLQPHPVTPSDTETRWQEDLFFSVGNMIPTINHTILFELLKSLEASGLFIQLLMALPTTICHAELERFLEHVTVDTSAEDVAFFLDVWWEVMKHKGHPQDPLLSQFSAMAHKYLPALDEFPHPPKRLRSDPDACPTMPLLAMLLRGLTQIQSRILGPGRKCCALANLADMLTVFALTEDDPQEVSATVYLDKLATVISVWNSDTQNPYHQQALAEKVKEAERDVSLTSLAKLPSETIFVGCEFLHHLLREWGEELQAVLRSSQGTSYDSYRLCDSLTSFSQNATLYLNRTSLSKEDRQVVSELAECVRDFLRKTSTVLKNRALEDITASIAMAVIQQKMDRHMEVCYIFASEKKWAFSDEWVACLGSNRALFRQPDLVLRLLETVIDVSTADRAIPESQIRQVIHLILECYADLSLPGKNKVLAGILRSWGRKGLSEKLLAYVEGFQEDLNTTFNQLTQSASEQGLAKAVASVARLVIVHPEVTVKKMCSLAVVNLGTHKFLAQILTAFPALRFVEEQGPNSSATFMVSCLKETVWMKFSTPKEEKQFLELLNCLMSPVKPQGIPVAALLEPDEVLKEFVLPFLRLDVEEVDLSLRIFIQTLEANACREEYWLQTCSPFPLLFSLCQLLDRFSKYWQLPKEKRCLSLDRKDLAIHILELLCEIVSANAETFSPDVWIKSLSWLHRKLEQLDWTVGLRLKSFFEGHFKCEVPATLFEICKLSEDEWTSQAHPGYGAGTGLLAWMECCCVSSGISERMLSLLVVDVGNPEEVRLFSKGFLVALVQVMPWCSPQEWQRLHQLTRRLLEKQLLHVPYSLEYIQFVPLLNLKPFAQELQLSVLFLRTFQFLCSHSCRDWLPLEGWNHVVKLLCGSLTRLLDSVRAIQAAGPWVQGPEQDLTQEALFVYTQVFCHALHIMAMLHPEVCEPLYVLALETLTCYETLSKTNPSVSSLLQRAHEQRFLKSIAEGIGPEERRQTLLQKMSSF
B1: the binding result is “binds”.
